Inconclusive means that the source gave no clear call. Such entries were picked first, then a sample of the others. Potencies beside an inconclusive call are fits to weak or partial responses and may not hold up. Active and inactive are the calls of the source. Rule for the calls: active = hit-call score of the fitted dose curve at least 0.9, where 1 is the maximum; inconclusive = response in the unintended direction; inactive = score below 0.9.
Biological target: rat GHB Receptor Antagonism, Tspan17 (gene 306771) (UniProt Q4V8E0)
Experiment: ERF_FR_GPCR_rGHB: Eurofins (ERF) G Protein-Coupled Receptor (GPCR) Radioligand Binding LeadHunter Assay for rat GHB Receptor Antagonism
Procedure: ERF_FR_GPCR_rGHB is a biochemical, single-readout assay that uses extracted gene-proteins in a cell-free assay. Measurements were taken 2 hour after chemical dosing in a 96-well plate. See GHB Rat Binding (Antagonist Radioligand) Assay, Cerep.ERF_FR_GPCR_rGHB is an assay component calculated from the ERF_FR_GPCR_rGHB assay. It is designed to measure radioligand binding using a type of binding reporter as detected by scintillation counting with radiometry technology.Data from the assay component ERF_FR_GPCR_rGHB was analyzed at the assay endpoint, ERF_FR_GPCR_rGHB, in the positive analysis fitting direction relative to DMSO as the negative control and baseline of activity. Using a type of binding reporter, loss-of-signal activity can be used to understand changes in binding as they relate to gene TSPAN17. To generalize the intended target to other relatable targets, this assay endpoint is annotated to the gpcr intended target family, where the subfamily is ghb .
Brain cortex of Wistar derived rats weighing 175 +/- 25 g are used to prepare GHB receptors in potassium buffer pH 6.0. A 1 mg aliquot is incubated with 20 nM [3H] NCS382 for 120 minutes at 4 C. Non-specific binding is estimated in the presence of 1 mM NCS382. Membranes are filtered and washed, the filters are then counted to determine [3H] NCS382 specifically bound. Note: Membrane protein may change from lot to lot, the concentration used will be adjusted if necessary.

Amino acid sequences for entries named in this document (tags omitted). A change or cut given only in a name is not applied to a line headed by its entry.
UniProt Q4V8E0: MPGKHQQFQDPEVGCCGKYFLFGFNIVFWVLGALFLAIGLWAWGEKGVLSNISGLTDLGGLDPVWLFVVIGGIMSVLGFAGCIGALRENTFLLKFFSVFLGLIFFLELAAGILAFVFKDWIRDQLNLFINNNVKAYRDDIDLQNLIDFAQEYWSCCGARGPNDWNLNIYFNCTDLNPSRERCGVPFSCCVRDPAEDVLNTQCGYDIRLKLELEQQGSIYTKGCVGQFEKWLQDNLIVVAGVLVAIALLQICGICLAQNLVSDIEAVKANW

Row | Structure (SMILES) | AC50
1 | COc1cc(CCC(=O)CC(=O)CCc2ccc(O)c(OC)c2)ccc1O | inconclusive: 1.17 nM
2 | CCCCC[C@H](O)CC(=O)CCc1ccc(O)c(OC)c1 | inconclusive: 9.73 nM
3 | COc1cc(/C=C/C(=O)CC(=O)/C=C/c2ccc(O)c(OC)c2)ccc1O | active: 1590 nM

From PubChem BioAssay AID2284187 (EPA ToxCast)
